This note sets out measurements from patent US20250283871A1, “COMPOSITIONS AND METHODS FOR MODULATING THE INTERACTION BETWEEN SS18-SSX FUSION ONCOPROTEIN AND NUCLEOSOMES” (Dana-Farber Cancer Institute, Inc., priority 2020, published 2025).

The data set deals with BAF complex subunits and histone proteins. Kind of data set: Mass spectrometry proteomics of purified HA-SS18 WT and HA-SS18-SSX1 complexes (Tables 5A-5E). Particulars: for Total / Unique: HA-SS18SSX1_CHR_peptides; for Total: total peptides of the identified protein; for Unique: unique peptides of the identified protein. Also on record: species or system human.
[1] abbreviates: HA-SS18SSX1_CHR_peptides: protein identified in the HA-SS18-SSX1 purification from solubilized chromatin (CHR), HEK-293T.
The mark [2] stands for this setting: HA-SS18WT_CHR_peptides: protein identified in HA-SS18 WT BAF complex purification from nuclease-treated solubilized chromatin (CHR), HEK-293T.
Where [3] appears, read: HA-SS18SSX1 purification, NE (soluble nuclear extract) fraction, HEK-293T, peptides per identified protein.
[4] abbreviates: HA-SS18WT_NE_peptides: HA-SS18 WT complexes purified from nuclear extract (NE), HEK-293T, label = protein identified (Gene Symbol).
Setting [5] is: HA-SS18WT_NE_peptides: proteins co-purified with HA-SS18 WT from nuclear extract (NE), HEK-293T.
Where [6] appears, read: HA-SS18WT_CHR_peptides: HA-SS18 WT purification from nuclease-treated solubilized chromatin (CHR), HEK-293T, label = protein identified.
Where [7] appears, read: HA-SS18SSX1_NE_peptides: protein co-purified with HA-SS18-SSX1 BAF complexes from soluble nuclear extract (NE), HEK-293T cells.
Where [8] appears, read: HA-SS18SSX1_NE_peptides (Table 5B), HA-SS18-SSX1 BAF complex purification from soluble nuclear extract, HEK-293T.
Setting [9] is: HA-SS18SSX1_CHR_peptides: proteins found in HA-SS18-SSX1 BAF complex purification from solubilized chromatin (CHR), HEK-293T.

For STAG1, under setting [1], the “Total (total peptides)” value came to 5 and the “Unique (unique peptides)” value is reported as 5. In addition, under setting [2], the “Total (total peptides)” value is 2 and the “Unique (unique peptides)” value is listed as 2.

As to SUCLG1, under setting [3], the “Total (total peptides)” value turned out to be 3 and the “Unique (unique peptides)” value is given as 3. Under setting [4], the “Total (peptides)” value is 6 and the “Unique (peptides)” value is 5.

For the substance SUN1, under setting [1], the “Total (total peptides)” value is 5 and the “Unique (unique peptides)” value was determined as 5. Besides, under setting [2], the “Total (total peptides)” value came to 1 and the “Unique (unique peptides)” value is recorded as 1.

SUN2: under setting [1], the “Total (total peptides)” value is reported as 8 and the “Unique (unique peptides)” value was found to be 8. In addition, under setting [3], the “Total (total peptides)” value amounted to 4 and the “Unique (unique peptides)” value was found to be 4. Also, under setting [5], the “Total (peptides)” value was determined as 1 and the “Unique (peptides)” value came out at 1.

As to SUPT16H, under setting [1], the “Total (total peptides)” value came to 28 and the “Unique (unique peptides)” value worked out at 26. Also, under setting [3], the “Total (total peptides)” value is on record as 4 and the “Unique (unique peptides)” value stood at 4. Under setting [6], the “Total (peptides)” value is 21 and the “Unique (peptides)” value is recorded as 20.

SUZ12 displayed a Total of 2 and a Unique of 2.

With SYNE2, under setting [1], the “Total (total peptides)” value was determined as 7 and the “Unique (unique peptides)” value is given as 7. Moreover, under setting [6], the “Total (peptides)” value is 4 and the “Unique (peptides)” value amounted to 4.

Take TADA1 [listing 1 of 2 here]: under setting [7], the “Total (peptides)” value stood at 1 and the “Unique (peptides)” value was found to be 1.

On to TADA1 [listing 2 of 2 here], for which, under setting [5], the “Total (peptides)” value amounted to 1 and the “Unique (peptides)” value came to 1.

For TAF5L, under setting [5], the “Total (peptides)” value was determined as 1 and the “Unique (peptides)” value is reported as 1.

Take TAF6L: the “Total (peptides)” value is, setting by setting: under setting [7], 2; under setting [5], 1. The “Unique (peptides)” value is, setting by setting: under setting [7], 2; under setting [5], 1.

For TAF10, under setting [8], the “Total (peptides)” value amounted to 1 and the “Unique (peptides)” value came out at 1.

Consider TAF15, for which the Total was determined as 1 and the Unique came out at 1. Under setting [5], the “Total (peptides)” value is given as 1 and the “Unique (peptides)” value is 1.

As to TARDBP [listing 1 of 2 here], under setting [7], the “Total (peptides)” value amounted to 1 and the “Unique (peptides)” value is 1.

Regarding TARDBP [listing 2 of 2 here], under setting [9], the “Total (peptides)” value amounted to 1 and the “Unique (peptides)” value came out at 1. In addition, under setting [2], the “Total (total peptides)” value came out at 1 and the “Unique (unique peptides)” value is 1.

On to TCF20, for which the Total was found to be 2 and the Unique came out at 2. Under setting [6], the “Total (peptides)” value was found to be 3 and the “Unique (peptides)” value is given as 3.

TCP1: under setting [7], the “Total (peptides)” value is reported as 2 and the “Unique (peptides)” value was 2. For the same substance, under setting [5], the “Total (peptides)” value worked out at 1 and the “Unique (peptides)” value is 1.

With TECR, under setting [9], the “Total (peptides)” value was determined as 1 and the “Unique (peptides)” value is recorded as 1. Under setting [3], the “Total (total peptides)” value is 3 and the “Unique (unique peptides)” value worked out at 3. For the same substance, under setting [4], the “Total (peptides)” value was found to be 3 and the “Unique (peptides)” value is 3.

For the substance THOC2, under setting [7], the “Total (peptides)” value is 1 and the “Unique (peptides)” value was 1.

Turning to TIMM17B [listing 1 of 2 here], under setting [7], the “Total (peptides)” value is reported as 1 and the “Unique (peptides)” value is recorded as 1.

As to TIMM17B [listing 2 of 2 here], under setting [5], the “Total (peptides)” value is listed as 1 and the “Unique (peptides)” value worked out at 1.

Substance TIMM50 came in with a Total of 3 and a Unique of 3. Also, under setting [3], the “Total (total peptides)” value is 4 and the “Unique (unique peptides)” value is reported as 4. For the same substance, under setting [2], the “Total (total peptides)” value stood at 1 and the “Unique (unique peptides)” value was found to be 1. For the same substance, under setting [4], the “Total (peptides)” value is 7 and the “Unique (peptides)” value came out at 6.

As for TJP1, the Total is listed as 1 and the Unique is 1.

As to TM9SF1, under setting [7], the “Total (peptides)” value is given as 2 and the “Unique (peptides)” value was determined as 2.

With TM9SF2, under setting [7], the “Total (peptides)” value is 2 and the “Unique (peptides)” value stood at 2. Besides, under setting [4], the “Total (peptides)” value is 2 and the “Unique (peptides)” value worked out at 2.
